Reference: US20150065343A1, “Acrylamide compounds for combating invertebrate pests” (priority 2012, published 2015)
Some entries share one result that the patent states for a list of compounds.

Columns and labels:
Format in all cases: in vivo
[1] = system: Red spider mite (Tetranychus kanzawai); test: B.11 Red spider mite spray test on potted cowpea beans; details: 500 ppm; sprayed cowpea beans; assessed after 72 h
[2] = system: Cowpea aphid (Aphis craccivora); test: B.1 Cowpea aphid spray test on potted cowpea plants; details: 500 ppm; sprayed cowpea plants; population reduction assessed after 24, 72 and 120 hours
[3] = system: Southern armyworm (Spodoptera eridania); test: B.7 Southern armyworm spray test on lima bean plants; details: 300 ppm; sprayed lima bean foliage; armyworm larvae; 4 days after treatment
Experimental: B.7 Southern armyworm (Spodoptera eridania)
The active compounds were formulated in cyclohexanone as a 10,000 ppm solution supplied in tubes. The tubes were inserted into an automated electrostatic sprayer equipped with an atomizing nozzle and they served as stock solutions for which lower dilutions were made in 50% acetone:50% water (v/v). A nonionic surfactant (Kinetic®) was included in the solution at a volume of 0.01% (v/v).
Lima bean plants (variety Sieva) were grown 2 plants to a pot and selected for treatment at the 1st true leaf stage. Test solutions were sprayed onto the foliage by an automated electrostatic plant sprayer equipped with an atomizing spray nozzle. The plants were dried in the sprayer fume hood and then removed from the sprayer. Each pot was placed into perforated plastic bags with a zip closure. About 10 to 11 armyworm larvae were placed into the bag and the bags zipped closed. Test plants were maintained in a growth room at about 25° C. and about 20-40% relative humidity for 4 days, avoiding direct exposure to fluorescent light (24 hour photoperiod) to prevent trapping of heat inside the bags. Mortality and reduced feeding were assessed 4 days after treatment, compared to untreated control plants.

Measured: mortality in comparison with untreated controls

CCNC(=O)NN=Cc1sc(/C=C/C(=O)NC(c2cccc(C(F)(F)F)c2)C(F)(F)F)cc1C (racemic) [Compound 1-2]
at least 75%: all assays above
